Test results taken from PubChem BioAssay AID485314 (National Center for Advancing Translational Sciences (NCATS), 2010).
Screen size: about 340,000 compounds; about 4,500 (1.3%) were called active. The shares of active, inactive and inconclusive entries below differ from those in the screen. The call rests on the fitted dose curve; in most records, active means well fitted inhibition curve with a large enough effect; inconclusive means small, poorly fitted or top-dose-only effect, or another doubt; inactive means no such curve, though single readings can be large or run the other way. Where the call is inconclusive, the potency comes from a doubtful curve fit.

Each compound was assayed against DNA polymerase beta (Homo sapiens) (UniProt P06746) (assay: qHTS Assay for Inhibitors of DNA Polymerase Beta). Settings: Pol beta primer extension/strand displacement, fluorescence kinetic; activity change, negative = inhibition: at 114 µM (top of the series).
How it was run: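 Human Pol beta at 10 nM; strand-displacement substrate 50 nM final. Compound exposure 15 min at room temperature before start, reaction 10 min at room temperature.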
On the % scale 0 is the no-effect control and ±100 the full control effect; potency means the concentration at half of the fitted maximal effect.

| Compound | Potency | activity change, negative = inhibition |
| --- | --- | --- |
| Cc1c(Cl)cccc1NC(=O)CC(c1cccs1)N1Cc2ccccc2C1=O (configuration not stated) | inactive |  |
| Cc1ccc(S(=O)(=O)NCC(=O)OCC(=O)c2ccc(Br)s2)cc1 | inconclusive: 22.4 µM [inhibitor, single point] |  |
| COc1ccc(C)cc1S(=O)(=O)N(CC(=O)NC1CCCC1)c1ccc(F)cc1 | inconclusive: 5.01 µM [inhibitor, single point] |  |
| COc1c(C)cc(S(=O)(=O)Nc2cccc(-c3ccc(N4CCOCC4)nn3)c2)c(C)c1C | inactive |  |
| COc1ccccc1-c1nnc2sc(-c3cnccn3)nn12 | inconclusive: 20 µM [inhibitor, single point] |  |
| CCOc1ccccc1NC(=O)CN1C(=O)COc2ccc(S(=O)(=O)N3CCCCCC3)cc21 | inactive |  |
| CN1CCN(C(=O)CCc2nc(-c3ccc(Cl)cc3)no2)CC1 | inconclusive: 56.2 µM [inhibitor, partial curve, poor fit] |  |
| O=c1nc(SCc2ccccc2Cl)nc(-c2ccc(Cl)cc2)[nH]1 | inactive |  |
| Cc1cc(=O)[nH]c2nnc(SCc3ccc(Cl)c(Cl)c3)n12 | inconclusive: 89.1 µM [inhibitor, single point] |  |
| CC(=O)c1sc2nc(-c3ccco3)ccc2c1N | active: 12.6 µM |  |
| O=C(COc1ccc2ccccc2c1)NNC(=O)c1ccc([N+](=O)[O-])cc1 | active: 8.91 µM |  |
| CCC(=O)NC1CC(=O)N(c2ccc3c(c2)OCCO3)C1 (configuration not stated) | inactive |  |
| CCNC(=O)c1ccc(CSc2ccc(Cl)cc2)cc1 | inactive |  |
| O=C(Cn1cnc2c(nc3n2CCCCC3)c1=O)Nc1ccc(F)cc1 | inactive |  |
| CCc1ccc(NC(=O)CSc2ccc3nnc(CCNS(=O)(=O)c4ccc(OC)cc4)n3n2)cc1 | inconclusive: 0.1 µM [inhibitor, full curve, poor fit] |  |
| Cc1cc(OCCCSc2nc(-c3ccc(C(C)(C)C)cc3)nc3cc(=O)[nH]n23)ccc1Cl | active: 39.8 µM |  |
| Cc1cccc(-c2noc(CNC(=O)COc3ccccc3C)n2)c1 | inconclusive: 89.1 µM [inhibitor, single point] |  |
| CCc1ccc(NC(=O)C2CCN(c3cc(C)nc4c(-c5ccc(Cl)cc5)c(C)nn34)CC2)cc1 | inactive |  |
| CCC(C(=O)NCCc1ccccc1)c1ccccc1 (configuration not stated) | inconclusive: 89.1 µM [inhibitor, single point] |  |
| COC(=O)C1=C(C)NC(C)=C(C(=O)OC)C1/C=C/c1ccccc1 | inconclusive: 12.6 µM [inhibitor, partial curve] |  |
| COc1cc(/C=C2\SC(=S)N(NC(=O)c3ccc(O)cc3)C2=O)ccc1O | active: 12.6 µM |  |
| Oc1c(Br)cc(Br)cc1CNc1ccc(F)cc1 | inconclusive: 31.6 µM [inhibitor, partial curve, poor fit] |  |
| COc1ccc(Nc2cc(C)nc(-n3nc(C)cc3C)n2)cc1Cl | inconclusive: 89.1 µM [inhibitor, single point] |  |
| C=CCCN(Cc1ccccc1)S(=O)(=O)c1ccccc1Br | inconclusive: 0.282 µM [inhibitor, full curve, poor fit] |  |

| Compound | Potency | activity change, negative = inhibition |
| --- | --- | --- |
| COc1ccc(C(=O)Cc2cc(OC)c(OC)cc2C(=O)c2ccccc2F)cc1OC | inconclusive: 5.01 µM [inhibitor, single point] |  |
| CC(C)CN1CCN(Cc2cccn2-c2cccnc2)CC1CCO (configuration not stated) | inconclusive: 79.4 µM [inhibitor, single point] |  |
| CNC(=O)N1CCN(C(=O)NC)CC1 | inconclusive: 0.316 µM [inhibitor, full curve, poor fit] |  |
| C=CCNC(=O)c1ccc(Cl)cc1Cl | inconclusive: 89.1 µM [inhibitor, single point] |  |
| Cc1ccccc1-c1nc(CS(=O)(=O)CC(=O)NC(C)c2ccccc2)c(C)o1 (configuration not stated) | inconclusive: 79.4 µM [inhibitor, single point] |  |
| O=C(COC(=O)C1C2CC3OC(=O)C1C3C2)Nc1cccc(Cl)c1 (configuration not stated) | inconclusive: 89.1 µM [inhibitor, single point] |  |
| CCOc1ccc(CNC(=O)Cn2nc(C)c3nn(-c4ccc(Cl)cc4)c(C)c3c2=O)cc1OC | inactive |  |
| CCOc1ccc(C(CCc2ccccc2)NC(=O)c2ccccc2OC)cc1OCC (configuration not stated) | inconclusive: 56.2 µM [inhibitor, partial curve, poor fit] |  |
| O=C(CCS(=O)(=O)Cc1ccccc1)Nc1nncs1 | inconclusive: 100 µM [inhibitor, single point] |  |
| Cc1ccc2c(c1)c1c(c(=O)n(-c3ccccc3C)c(=O)n1CC(=O)NCCC1=CCCCC1)n2C | inactive |  |
| Cc1ccc(Cl)cc1NS(=O)(=O)c1ccc2c(c1)NC(=O)C(C)C(=O)N2 (configuration not stated) | inconclusive: 89.1 µM [inhibitor, single point] |  |
| O=S(=O)(c1ccccc1)N1CCC(c2ccncc2)CC1 | inactive |  |
| Cc1cccc(Nc2nc(N)c([N+](=O)[O-])c(N3CC(C)CC(C)C3)n2)c1 (configuration not stated) | inconclusive: 39.8 µM [inhibitor, single point] |  |
| Cc1ccccc1NC(=O)NC1(C(=O)N2CCOCC2)CCCCC1 | inactive |  |
| CC(C)CC1C(C#N)=C(N)SC(N)=C1C#N | inconclusive: 89.1 µM [inhibitor, single point] |  |
| Oc1[nH]c(N=C2N=c3ccccc3=N2)c2ccccc12 | inconclusive: 89.1 µM [inhibitor, single point] |  |
| Cc1ccc(Cc2nc3ccccc3nc2SCC(=O)Nc2cccc(C(F)(F)F)c2)cc1 | inactive |  |
| Cc1c(Cc2ccccc2)c(=O)oc2c(C)c(OC(C)C(=O)NCC3CCC(C(=O)O)CC3)ccc12 (configuration not stated) | inactive |  |
| COc1ccc(/C(C)=N/Nc2nncc3ccccc23)cc1 | inactive |  |
| O=C(CN1CCSc2ccccc21)N1CCN(c2cccc(Cl)c2)CC1 | inactive |  |
| O=S(=O)(Nc1nc2ccccc2nc1NCc1ccco1)c1ccc(Cl)cc1 | inconclusive: 2.82 µM [inhibitor, partial curve, poor fit] |  |
| CCCCC(NC(=O)Cc1c(C)c2cc3c(-c4ccccc4)coc3c(C)c2oc1=O)C(=O)O (configuration not stated) | inconclusive: 79.4 µM [inhibitor, single point] |  |
| COc1ccc(S(=O)(=O)N2CCN(Cc3ccc4c(c3)OCO4)CC2)cc1OC | inactive |  |
| CCOC(=O)c1c(C)oc2c1c1c(c3ccccc32)OCN(CCCC(=O)O)C1 | inconclusive: 63.1 µM [inhibitor, single point] |  |

Pulled one by one from the list above:

| Compound | Potency | activity change, negative = inhibition |
| --- | --- | --- |
| CC(C)CC1C(C#N)=C(N)SC(N)=C1C#N | inconclusive: 89.1 µM [inhibitor, single point] |  |
| Cc1ccc(Cl)cc1NS(=O)(=O)c1ccc2c(c1)NC(=O)C(C)C(=O)N2 (configuration not stated) | inconclusive: 89.1 µM [inhibitor, single point] |  |

Continued:

| Compound | Potency | activity change, negative = inhibition |
| --- | --- | --- |
| CCC(=O)Nc1ccc2nc(SCc3ccc(C)cc3)sc2c1 | inconclusive: 89.1 µM [inhibitor, single point] |  |
| CCOc1cccc(NC(=O)Cc2cccs2)c1 | inactive |  |
| CC(C)=CCN1CCN(Cc2c(C)nn(C)c2Cl)CC1CCO (configuration not stated) | inconclusive: 89.1 µM [inhibitor, single point] |  |
| COc1ccccc1CNC1CCN(Cc2ccccc2)CC1 | inconclusive: 70.8 µM [inhibitor, single point] |  |
| COc1ccc2cc(C(=O)N/N=C/c3cc(OC)c(OC)c(OC)c3)[nH]c2c1 | active: 10 µM |  |
| COCCNC(=O)c1nn(-c2ccc(Cl)cc2)nc1CO | inactive |  |
| Cc1ccc(S(=O)(=O)N(CC(=O)O)Cc2ccco2)cc1 |  | inconclusive: -99.2% [inhibitor] |
| C=CCn1c(SCC(=O)c2ccc(F)cc2)nnc1-c1ccc2c(c1)OCO2 | inconclusive: 63.1 µM [inhibitor, single point] |  |
| O=C(Cc1ccccc1)N(Cc1cccnc1)c1nc2ccc(F)cc2s1 | inconclusive: 89.1 µM [inhibitor, single point] |  |
| CCN(CC(=O)NC(=O)NCc1ccccc1)Cc1nc2ccccc2c(=O)[nH]1 | inconclusive: 39.8 µM [inhibitor, single point] |  |
| CC(C)(C)Nc1nc2nonc2nc1NC(C)(C)C | inconclusive: 100 µM [inhibitor, single point] |  |
| O=C(COC(=O)c1ccc2c(c1Cl)C(=O)c1ccccc1C2=O)NC1CC1 | inconclusive: 15.8 µM [inhibitor, full curve, poor fit] |  |
| COCCN1C(=O)/C(=C/c2ccc(OCc3ccc(C(=O)O)cc3)c(OC)c2)SC1=Nc1ccccc1 | active: 50.1 µM |  |
| Cc1ccccc1C(=O)NC1CCN(CC(=O)Nc2ccccc2Cl)CC1 | inconclusive: 4.47 µM [inhibitor, full curve] |  |
| CN(C)CCNc1cc(-c2ccncc2)nc2ccccc12 | inconclusive: 79.4 µM [inhibitor, single point] |  |
| COc1ccc(CCNC(=O)CCCn2c(=O)c3ccccc3n(CC(=O)Nc3ccc(C)cc3Cl)c2=O)cc1OC | inconclusive: 44.7 µM [inhibitor, partial curve] |  |
| O=[N+]([O-])c1cccc(-c2ccc(CN3CCN(c4ccccc4)CC3)o2)c1 | inactive |  |
| Cc1ccc(C(=O)CSc2nnc(-c3ccncc3)n2C)cc1 | inconclusive: 100 µM [inhibitor, single point] |  |
| O=C(c1ccc2c(c1)N(Cc1cccc(Cl)c1)C(=O)c1ccccc1S2(=O)=O)N1CCCCCC1 | inconclusive: 89.1 µM [inhibitor, single point] |  |
| CCCCc1nnc(NC(=O)C2CC(=O)N(c3ccc4c(c3)OCCO4)C2)s1 (configuration not stated) | inactive |  |
| CNC(=O)/C(C#N)=C/c1ccc(-c2ccc(Cl)cc2)o1 | inconclusive: 56.2 µM [inhibitor, single point] |  |
| COc1ccc2c(c1)O/C(=C\c1ccco1)C2=O |  | inconclusive: -146% [inhibitor] |
| CCc1ccc2nc3sc(C(=O)Nc4nnc(CC)s4)c(N)c3cc2c1 | active: 25.1 µM |  |
